Values of other authors as cited in patent publication US20240327387A1, “TRIAZINE DERIVATIVES FOR THE TREATMENT OF TUMOURS AND NEURODEGENERATIVE DISORDERS” (UNIVERSITA' DEGLI STUDI DI MILANO, priority 2021, published 2024).
At least one compound was matched to its structure with a doubt left.

Tested on: tumour growth
Details: humanised mouse model with an immune checkpoint; cited from earlier work

SMILES | suppression of tumour growth
Cc1c(COc2cc(OCc3cccc(C#N)c3)c(CN3CCCCC3C(=O)NCCN)cc2Cl)cccc1-c1ccccc1 (centres unmarked) [D] | highly effective in suppressing tumour growth
Cc1c(CNc2ccc(CNC(CO)C(=O)O)c(OCc3cncc(C#N)c3)c2)cccc1-c1ccccc1 (centres unmarked) [C] | highly effective in suppressing tumour growth
